Test results published in publication doi:10.1101/2020.05.26.114710.
These are yes or no findings as the source states them, for the method shown. Binding seen in cells or lysates may run through a third protein. Here binding means that the protein was enriched with, or labelled near, the bait; the list need not be complete.

Chains of the proteins cited; added tags and fusions are not shown. Lines headed by an entry give the natural chain unless they say otherwise; changes in a name come on top.
UniProt Q8NFJ5, whole entry, stated change not applied: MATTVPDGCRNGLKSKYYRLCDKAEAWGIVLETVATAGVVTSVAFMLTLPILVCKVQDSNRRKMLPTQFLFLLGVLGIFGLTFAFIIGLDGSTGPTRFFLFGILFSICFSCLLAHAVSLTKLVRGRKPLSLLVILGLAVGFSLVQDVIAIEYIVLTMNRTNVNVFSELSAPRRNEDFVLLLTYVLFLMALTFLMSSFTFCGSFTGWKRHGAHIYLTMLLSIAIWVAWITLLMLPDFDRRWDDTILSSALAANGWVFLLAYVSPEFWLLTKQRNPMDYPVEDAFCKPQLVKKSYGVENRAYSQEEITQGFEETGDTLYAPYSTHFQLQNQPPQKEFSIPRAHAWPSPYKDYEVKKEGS

Target: GPRC5A (UniProt Q8NFJ5)
Experiment: affinity purification with mass spectrometry

**Q.** How did the binding turn out when Gγ12 (from UniProt Q9UBI6 1-72) was run?
**A.** binds
